No constants are given. Whether binding was seen depends on the method and setting. Binding calls can cover weak binding; strength is not graded here.
Target: SRPK1ΔNS3
Assay: covalent adduct formation assay (SDS-PAGE band shift); 8 μM peptide added to 2 μM protein (1:4 protein:peptide) in 50 mM HEPES pH 7.5, 150 mM NaCl, 5% glycerol, 1 mM benzamidine for the indicated times; SDS-PAGE, Coomassie Blue; both purified

B1: DBS1-2 (peptide)
peptide: RERARTRRERARTRERARTR
modifications: E9 side chain esterified with 4-nitrophenol; N-terminal acetyl; C-terminal amide
For B1, which binding is on record?
Its binding is “binds”.

From paper PMC11211491, “Design of a covalent protein-protein interaction inhibitor of SRPKs to suppress angiogenesis and invasion of cancer cells” (Communications Chemistry, 2024)
